Measured values: publication PMC6128693
These are yes or no findings as the source states them, for the method shown. Binding seen in cells or lysates may run through a third protein. These calls come from enrichment with a bait or labelling near it, and not all partners need be listed. For some of these results: A no says only that the protein was not detected with the bait. Tags and fused reporters may be left off the sequences shown.

T1: SGF11, GS^rhino tag fusion (TAP bait) (Arabidopsis thaliana) (UniProt Q94BV2)
T1 sequence: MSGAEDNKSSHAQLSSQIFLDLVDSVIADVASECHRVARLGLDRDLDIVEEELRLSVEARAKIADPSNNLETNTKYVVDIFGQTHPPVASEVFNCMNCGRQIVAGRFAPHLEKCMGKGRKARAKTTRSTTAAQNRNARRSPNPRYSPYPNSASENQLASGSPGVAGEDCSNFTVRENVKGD

T2: UBP22, GS^rhino tag fusion (TAP bait) (Arabidopsis thaliana) (UniProt Q9LEW0)
T2 sequence: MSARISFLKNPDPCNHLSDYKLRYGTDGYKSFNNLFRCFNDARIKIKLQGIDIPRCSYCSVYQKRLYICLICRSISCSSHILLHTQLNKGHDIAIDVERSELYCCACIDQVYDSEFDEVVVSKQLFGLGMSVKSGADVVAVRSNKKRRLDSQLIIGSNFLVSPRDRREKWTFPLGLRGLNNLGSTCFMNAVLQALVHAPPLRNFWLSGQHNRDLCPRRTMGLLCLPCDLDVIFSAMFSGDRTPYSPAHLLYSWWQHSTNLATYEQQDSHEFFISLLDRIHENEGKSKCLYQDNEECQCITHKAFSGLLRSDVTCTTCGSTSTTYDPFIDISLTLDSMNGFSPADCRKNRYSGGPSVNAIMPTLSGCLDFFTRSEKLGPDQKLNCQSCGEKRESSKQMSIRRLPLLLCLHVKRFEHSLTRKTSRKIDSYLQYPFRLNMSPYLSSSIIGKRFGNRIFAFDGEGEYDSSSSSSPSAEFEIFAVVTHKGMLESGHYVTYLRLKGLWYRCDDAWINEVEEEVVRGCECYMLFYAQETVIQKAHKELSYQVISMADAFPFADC

B1: UBP22 (AT5G10790), endogenous in Arabidopsis cell culture (enzyme, UniProt Q9LEW0 1-557)
chain: T2 sequence
B2: TONNEAU1A (protein, UniProt Q9FQ25 1-260)
chain: MDDYTREMMDLKTLVTRTLEKKGVLAKIRAELRASVFEAIEEEDRVIENNEGPPPALLGSCNDRARKLHASPSGRLLSALICEYLDWAQLNHTLIVYQPESNLPKDSWKSELRDFNSNNGFELNRNGDSGPLLLDVLEGFLKFESMTQGMGSSSRRDSETESSSSLESRNPPRRSSASDSLPPQRRPVSASQASDRRAGLSTSGYRKDEFNWRQGNQDTHEEVTRASAALENLQLDRKTRNLTSSWRNVRDGTNEEEGRD
B3: TONNEAU1B (protein, UniProt Q9FQ24 1-257)
chain: MDDYTREMMDLKTLVTRTLEKKGVLAKIRAELRASVFEAIEEEDRVIENNEGLPPALLGSCNDRARQLHASPSGRLLSALICEYLDWAQLNHTLKVYQPECNSAKDSWKSEIRDFSINNGYELNRNEDSRPLLLDVLEGFLKFENMTQVMGGSSRRESETESSLSLDTRNPPRRSSASDSLPHQRRSVSASQASGAATSGYRKDESNWRYDTEDMPEEVMRASTALENLQLDRKTRNLTSSWRNVKDGTSEEEEGKD
B4: ENY2 (AT3G27100), endogenous in Arabidopsis cell culture (protein, UniProt Q6NQ54 1-115)
chain: MKHSVNRPPTPDEDDVADGFEKDKVTLREIINVKLVESGEKENLMELVRDRLVECGWKDEMRIACREHVKKKGRKDVTVDELIRVITPKGRASVPDSVKAELLNRIQNFIVSAAL
B5: SGF11, endogenous in Arabidopsis cell culture (protein, UniProt Q94BV2 1-181)
chain: T1 sequence
B6: DET1, endogenous in Arabidopsis cell culture (protein, UniProt P48732 1-543)
chain: MFTSGNVTARVFERQIRTPPPGASVNRARHFYENLVPSYTLYDVESPDHCFRKFTEDGLFLISFSRNHQELIVYRPSWLTYSTTDDSTTTLPPLPRRASKFDSFFTQLYSVNLASSNELICKDFFLYHQTRRFGLFATSTAQIHDSSSPSNDAVPGVPSIDKITFVLLRLDDGVVLDERVFLHDFVNLAHNMGVFLYDDLLAILSLRYQRIHLLQIRDSGHLVDARAIGYFCREDDELFLNSSSQAMMSQDKSKQQSLSGSKEDDTGENGLRHSLSQPSGSNSFLSGVKQRLLSFIFREIWNEESDNVMRVQSLKKKFYFHFQDYVDLIIWKVQFLDRQHLLIKFGSVDGGVTRSADHHPAFFAVYNMETTDIVAFYQNSAEDLYQLFEQFSDHFTVSSSTPFMNFVTSHSNNVYALEQLKYTKNKSNSFSQFVKKMLLSLPFSCQSQSPSPYFDQSLFRFDEKLISAADRHRQSSDNPIKFISRRQPQTLKFKIKPGPECGTADGRSKKICSFLFHPHLPLAISIQQTLFMPPSVVNIHFRR
B7: DDA1, endogenous in Arabidopsis cell culture (protein, UniProt Q9FFS4 1-101)
chain: MASILGDLPSFDPHNFSQHRPSDPSNPSKMVPTTYRPTHNRTLPPPDQVITTEVKNILIRSFYQRAEEKLRPKRPATDHLAAEHVNKHFRAASSSSSTQGL

Each binder was assayed against T1, SGF11, GS^rhino tag fusion (TAP bait) (Arabidopsis thaliana) (assay: affinity purification with mass spectrometry; tandem affinity purification (TAP) of GS^rhino-tagged bait from Arabidopsis cell suspension cultures (SGF11: dark or light grown; UBP22: light grown), 200 mg total protein extract, LTQ Orbitrap Velos).

binding	Binder
binds	B1
binds	B2
binds	B3
binds	B4

What follows are binders tested against T2, UBP22, GS^rhino tag fusion (TAP bait) (Arabidopsis thaliana) in the same assay as above.

binding	Binder
binds	B5
no binding	B6
no binding	B7
